Test results: publication PMC3267040, “Structure of a Blinkin-BUBR1 Complex Reveals an Interaction Crucial for Kinetochore-Mitotic Checkpoint Regulation via an Unanticipated Binding Site” (Structure(London, England:1993), 2011)
No constants are given. Whether binding was seen depends on the method and setting. Binding can be weak; no strength is given.

The chains behind the UniProt entries cited, without tags or fusion partners. Residues count along the entry.
UniProt O60566, residues 57-220: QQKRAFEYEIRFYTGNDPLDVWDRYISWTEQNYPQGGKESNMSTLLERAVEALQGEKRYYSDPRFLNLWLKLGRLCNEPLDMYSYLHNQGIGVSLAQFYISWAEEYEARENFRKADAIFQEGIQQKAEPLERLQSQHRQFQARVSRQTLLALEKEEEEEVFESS

Target: BUBR1_(57-220), yeast two-hybrid fusion (human) (UniProt O60566)
Test: two-hybrid; Matchmaker 3 Y2H system; strains Y187[pGBKT7-bait] and GOLD[pGADT7-target] mated; growth on SD/-Ade/-His/-Leu/-Trp (quadruple dropout) and X-α-Gal activity (HIS, ADE, MEL1 reporters)

binding | Substance
binds | Blinkin_(225-260), yeast two-hybrid fusion (from UniProt Q8NG31-2) (domain or fragment)
binds | Blinkin_(227-250), yeast two-hybrid fusion (from UniProt Q8NG31-2) (domain or fragment)
